No constants are given. Whether binding was seen depends on the method and setting. For some assays here: In cells and extracts the contact can be indirect. Some results given as binding are weak or reduced against the parent protein; the word gives no strength.
Experiments:
[1] = biological target: His-tagged RAGE tail (human) (UniProt Q15109); experiment: immunoprecipitation and confocal microscopy
[2] = biological target: His-tagged RAGE tail (human) (UniProt Q15109); experiment: co-immunoprecipitation from transfected cells: IP with anti-his IgG, western blot with anti-myc IgG

Sequences of proteins named here, by UniProt entry; tags and fusion partners are left off. A change or cut given only in a name is not applied to a line headed by its entry.
UniProt Q15109: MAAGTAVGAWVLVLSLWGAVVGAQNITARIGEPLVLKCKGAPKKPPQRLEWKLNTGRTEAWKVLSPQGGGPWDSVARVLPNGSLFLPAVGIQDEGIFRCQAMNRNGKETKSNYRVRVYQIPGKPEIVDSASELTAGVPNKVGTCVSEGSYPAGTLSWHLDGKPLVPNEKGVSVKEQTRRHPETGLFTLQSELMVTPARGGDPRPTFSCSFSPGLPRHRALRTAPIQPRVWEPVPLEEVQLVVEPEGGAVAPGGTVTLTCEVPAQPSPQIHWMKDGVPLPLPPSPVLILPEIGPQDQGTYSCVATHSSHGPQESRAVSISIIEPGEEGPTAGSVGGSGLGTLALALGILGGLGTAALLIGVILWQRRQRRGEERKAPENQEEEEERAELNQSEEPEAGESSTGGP
UniProt O60610: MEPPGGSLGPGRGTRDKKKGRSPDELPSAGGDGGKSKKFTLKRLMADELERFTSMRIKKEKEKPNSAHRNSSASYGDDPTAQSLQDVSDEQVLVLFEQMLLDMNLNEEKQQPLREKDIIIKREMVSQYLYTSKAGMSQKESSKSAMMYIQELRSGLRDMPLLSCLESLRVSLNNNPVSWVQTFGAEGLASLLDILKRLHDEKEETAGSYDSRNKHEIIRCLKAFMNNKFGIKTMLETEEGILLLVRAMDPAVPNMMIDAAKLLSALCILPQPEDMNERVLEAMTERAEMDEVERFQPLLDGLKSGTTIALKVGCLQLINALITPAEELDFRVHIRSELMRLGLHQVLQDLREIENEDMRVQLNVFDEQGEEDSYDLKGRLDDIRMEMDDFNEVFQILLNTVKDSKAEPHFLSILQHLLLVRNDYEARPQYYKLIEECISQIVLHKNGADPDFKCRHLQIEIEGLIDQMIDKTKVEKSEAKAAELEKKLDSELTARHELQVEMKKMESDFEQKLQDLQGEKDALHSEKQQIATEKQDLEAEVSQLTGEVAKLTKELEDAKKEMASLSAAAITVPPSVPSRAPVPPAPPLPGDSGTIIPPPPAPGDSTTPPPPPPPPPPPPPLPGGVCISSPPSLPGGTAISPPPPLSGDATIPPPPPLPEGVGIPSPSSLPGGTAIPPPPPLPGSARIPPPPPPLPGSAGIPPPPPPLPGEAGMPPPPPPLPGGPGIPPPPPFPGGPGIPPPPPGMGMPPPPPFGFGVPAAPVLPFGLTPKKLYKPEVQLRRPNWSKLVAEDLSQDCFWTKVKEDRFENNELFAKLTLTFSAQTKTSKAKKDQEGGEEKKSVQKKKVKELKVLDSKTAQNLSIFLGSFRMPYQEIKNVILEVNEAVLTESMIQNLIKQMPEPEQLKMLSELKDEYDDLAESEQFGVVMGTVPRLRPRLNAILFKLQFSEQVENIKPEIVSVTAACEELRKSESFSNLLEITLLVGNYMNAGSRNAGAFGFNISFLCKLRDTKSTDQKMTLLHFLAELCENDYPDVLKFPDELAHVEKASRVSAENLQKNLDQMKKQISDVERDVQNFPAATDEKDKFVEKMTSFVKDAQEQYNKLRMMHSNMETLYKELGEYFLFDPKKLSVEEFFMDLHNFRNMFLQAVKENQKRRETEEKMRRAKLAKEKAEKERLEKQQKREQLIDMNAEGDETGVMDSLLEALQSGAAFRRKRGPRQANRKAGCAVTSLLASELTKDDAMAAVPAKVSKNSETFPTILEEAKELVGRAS

In the case of “Myc-tagged Diaphanous (from UniProt O60610 1-1272)”, the binding [1] was “binds” and the binding [2] was “binds”.
